PubChem BioAssay AID1259405, NCATS | 2018

Screen: 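Silenced genes that increase secreted GFP made by CHO cells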 (primary screen)
Cell system: Chinese hamster CHO-K1 ovary cells with stable secreted eGFP expression
Knock-down reagent: single siRNA against mouse genes, 0.8 pmol siRNA per well (2 µl of 400 nM stock)
Duration: 3 days
Read-out: 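Per-well intracellular GFP measured by laser scanning cytometry, plus viability from ATP luminescence, each relative to plate median of non-targeting control wells, in %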
Direction: GFP, % of control: higher = more GFP per well, higher productivity; viability (ATP), % of control: higher = more viable cells (more ATP)
Hit rule: 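a knock-down is called active if GFP reaches 120% or more of non-targeting control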
The deposit covers about 50,000 reagents; this is an unselected part. About 4,000 of them (8%) were called active. 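Mouse siRNA library applied to hamster cells; one well for each siRNA.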 The numbers tell different reagents against one gene apart.

target	reagent	GFP, % of control	viability (ATP), % of control	call
Rpl36a	1	64.6	58	inactive
Rpl36a	2	73.6	77.8	inactive
Rpl36a	3	37.9	40.1	inactive
Pgm2l1	1	58.2	64.1	inactive
Pgm2l1	2	51.6	80.1	inactive
Pgm2l1	3	51.8	43.1	inactive
Senp5	1	83.8	86.1	inactive
Senp5	2	29.1	38.5	inactive
Senp5	3	125	93.9	active
Cdkl3	1	160	95.1	active
Cdkl3	2	48.9	46.4	inactive
Cdkl3	3	84.5	78.7	inactive
Gprc6a	1	144	84.9	active
Gprc6a	2	90.6	67.4	inactive
Gprc6a	3	68	61.8	inactive
Irf3	1	74.8	71.7	inactive
Irf3	2	83.6	64	inactive
Irf3	3	97.8	106	inactive
Smim11	1	143	120	active
Smim11	2	98.8	70.8	inactive
Smim11	3	30.4	61.7	inactive
Vmn1r229	1	60	51.8	inactive
Vmn1r229	2	92.3	61.4	inactive
Vmn1r229	3	52.3	88.7	inactive
Gpx2	1	116	89.9	inactive
Gpx2	2	50.5	52.6	inactive
Gpx2	3	88.8	76.8	inactive
Caap1	1	121	94	active
Caap1	2	86.8	101	inactive
Caap1	3	107	104	inactive
Slc7a12	1	90.7	61.9	inactive
Slc7a12	2	99	94.5	inactive
Slc7a12	3	102	88.9	inactive
Cd300a	1	48.3	35.9	inactive
Cd300a	2	70.9	62.2	inactive
Cd300a	3	102	64.6	inactive
Polr3k	1	88.3	60.2	inactive
Polr3k	2	76.3	84.9	inactive
Kif5b	1	87	81.8	inactive
Kif5b	2	112	90.6	inactive
Nkain2	1	46	50.8	inactive
Nkain2	2	97.4	83	inactive
Nkain2	3	57.7	60.5	inactive

18 consecutive records already listed:
target	reagent	GFP, % of control	viability (ATP), % of control	call
Gpx2	2	50.5	52.6	inactive
Gpx2	3	88.8	76.8	inactive
Caap1	1	121	94	active
Caap1	2	86.8	101	inactive
Caap1	3	107	104	inactive
Slc7a12	1	90.7	61.9	inactive
Slc7a12	2	99	94.5	inactive
Slc7a12	3	102	88.9	inactive
Cd300a	1	48.3	35.9	inactive
Cd300a	2	70.9	62.2	inactive
Cd300a	3	102	64.6	inactive
Polr3k	1	88.3	60.2	inactive
Polr3k	2	76.3	84.9	inactive
Kif5b	1	87	81.8	inactive
Kif5b	2	112	90.6	inactive
Nkain2	1	46	50.8	inactive
Nkain2	2	97.4	83	inactive
Nkain2	3	57.7	60.5	inactive

Continued:
target	reagent	GFP, % of control	viability (ATP), % of control	call
Cdx2	1	79.2	92.3	inactive
Cdx2	2	168	113	active
Cdx2	3	39.6	57.4	inactive
Fam241a	1	79.5	64.3	inactive
Fam241a	2	76.4	92.9	inactive
Fam241a	3	57.4	64.9	inactive
Csf2ra	1	190	142	active
Csf2ra	2	79.3	55.5	inactive
Csf2ra	3	94.9	84.9	inactive
Or5ar1	1	82.2	81.8	inactive
Or5ar1	2	66.9	82.4	inactive
Or5ar1	3	64.6	75.9	inactive
P4ha3	1	103	99.6	inactive
P4ha3	2	194	152	active
P4ha3	3	83.9	60.2	inactive
Prrc2a	1	74.9	61.3	inactive
Prrc2a	2	90.4	88.6	inactive
Prrc2a	3	67.5	73.7	inactive
A930017M01Rik	1	73.5	61	inactive
A930017M01Rik	2	85.8	73.7	inactive
A930017M01Rik	3	52.5	61.9	inactive
Fosb	1	94	81	inactive
Fosb	2	69.1	68.9	inactive
Fosb	3	88.9	79.2	inactive
Acvr1	1	60.1	82.2	inactive
Pcsk4	1	41.4	49.9	inactive
Pcsk4	2	72.1	62.9	inactive
Pcsk4	3	111	109	inactive
Or14a260	1	39.6	34.4	inactive
Or14a260	2	79.9	65.8	inactive
Or14a260	3	111	97.5	inactive
Ptgfr	1	86.5	89.6	inactive
Ptgfr	2	51.8	71.9	inactive
Ptgfr	3	64.9	68.3	inactive
Oasl1	1	94.3	112	inactive
Oasl1	2	89.3	93.3	inactive
Tmem175	1	54	74.8	inactive
Tmem175	2	68.3	89.6	inactive
Tmem175	3	73	55.8	inactive
Slc7a6os	1	74.1	55.7	inactive
Slc7a6os	2	107	78.7	inactive
Slc7a6os	3	81.2	82.8	inactive
Nckap1	1	110	95	inactive
Nckap1	2	74.3	93.1	inactive
Nckap1	3	73.8	57.4	inactive
Or12e13	1	67.9	59.8	inactive
Or12e13	2	46	38.2	inactive
Or12e13	3	82.2	43.9	inactive
Parvb	1	46.6	67.7	inactive
Parvb	2	66	70.8	inactive
Parvb	3	169	55.1	active
Prmt3	1	81.3	66.7	inactive
Prmt3	2	99.6	111	inactive
Prmt3	3	106	97.2	inactive
Limd1	1	64.9	75.8	inactive
Limd1	2	201	144	active
Olfm1	1	93.1	61.8	inactive
Olfm1	2	77.2	91.9	inactive
Olfm1	3	37.1	50.5	inactive
Slc25a51	1	95.8	78.2	inactive
Slc25a51	2	104	78.3	inactive
Slc25a51	3	96.1	81.5	inactive
Ndufb5	1	93	66.9	inactive
Ndufb5	2	98.2	96.6	inactive
Ndufb5	3	55.9	77.2	inactive
